Nine molecules from patent US20250270304A1 can be followed below.

Sequences of proteins named here, by UniProt entry; tags and fusion partners are left off. A change or cut given only in a name is not applied to a line headed by its entry.
UniProt P08476: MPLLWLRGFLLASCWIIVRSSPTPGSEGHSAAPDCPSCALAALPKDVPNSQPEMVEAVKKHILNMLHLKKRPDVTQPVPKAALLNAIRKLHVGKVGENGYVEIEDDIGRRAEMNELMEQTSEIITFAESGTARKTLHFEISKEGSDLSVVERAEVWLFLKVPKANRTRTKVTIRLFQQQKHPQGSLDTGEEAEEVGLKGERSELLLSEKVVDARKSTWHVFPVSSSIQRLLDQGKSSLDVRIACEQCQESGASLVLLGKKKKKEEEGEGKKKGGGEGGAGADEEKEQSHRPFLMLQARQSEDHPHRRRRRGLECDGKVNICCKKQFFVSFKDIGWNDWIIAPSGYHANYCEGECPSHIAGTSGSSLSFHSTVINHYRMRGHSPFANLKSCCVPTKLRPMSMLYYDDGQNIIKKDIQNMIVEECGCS
UniProt P05111: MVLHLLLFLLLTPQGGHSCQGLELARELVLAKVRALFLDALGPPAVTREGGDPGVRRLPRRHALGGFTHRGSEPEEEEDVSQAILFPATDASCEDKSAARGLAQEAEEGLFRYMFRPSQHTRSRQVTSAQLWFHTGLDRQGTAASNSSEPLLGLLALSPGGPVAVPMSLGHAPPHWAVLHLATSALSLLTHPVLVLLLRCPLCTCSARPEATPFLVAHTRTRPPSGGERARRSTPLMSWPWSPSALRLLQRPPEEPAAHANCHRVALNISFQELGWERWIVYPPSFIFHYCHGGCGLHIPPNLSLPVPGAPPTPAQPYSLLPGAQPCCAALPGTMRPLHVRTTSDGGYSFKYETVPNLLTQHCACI

Positions count from the first letter of the chain named. Results are given in words; binding and its absence hold for the method and conditions named. Some results given as binding are weak or reduced against the parent protein; the word gives no strength.

Experiment [1] concerns the target Mature Activin A (human) (UniProt P08476). Nature of the experiment: ELISA, coated antigen, >[…] over BSA.
Experiment [2] deals with Latent Activin A (human) (UniProt P08476). Briefly: ELISA, coated antigen, >[…] over BSA. Background: In an ELISA, binding on a coated surface is turned into a signal by an enzyme label.
In experiment [3] the target is Inhibin A (Homo sapiens (Human)) (UniProt P05111). Nature of the experiment: ELISA, coated antigen, >[…] over BSA.
For experiment [4], the target named is Mature Activin A (human) (UniProt P08476). Nature of the experiment: ELISA dose-response, coated antigen.
The target of experiment [5] is Inhibin A (Homo sapiens (Human)) (UniProt P05111). Briefly: ELISA on plate-coated antigen, IgG titrated 1:3 from […], anti-human IgG-HRP, A450; panel 'Inhibin A' [continued].
For experiment [6], the target named is Mature Activin A (human) (UniProt P08476). Nature of the experiment: ELISA on plate-coated antigen, IgG titrated 1:3 from […], anti-human IgG-HRP, A450; panel 'Activin A'.
In experiment [7] the target is Latent Activin A (human) (UniProt P08476). Nature of the experiment: ELISA on plate-coated antigen, IgG titrated 1:3 from […], anti-human IgG-HRP, A450; panel 'Latent Activin A' [continued].

B1: AB439 (antibody, IgG1, V domains shown)
VH: EVQLVQSGAEVKKPGASVKVSCKASGYTYTGYRISWVRQAPGQGLEWMGWIDPKSGRTNYAQKLQGRGTMTTDPSTSTAYMELRSLRSDDTAVYYCAREVKQWLVPGRGVYWFDPWGQGTLVTVSS
VL: ESALTQPASVSGSPGQSITISCTGTNIGLRSVSWYQQHPGKAPKLMIYDTNIRSSGVSNRFSGSKSGNTASLTISGLQAEDEADYYCSSYTSSSTDVFGGGTKLTVL
For B1, the binding entry with Mature Activin A (human) [1] and with Latent Activin A (human) [2] was “binds” in each case.

B2: AB340 (antibody, IgG1, V domains shown)
VH: EVQLVESGGGLVQPGGSLRLSCAASGFTASRNYMSWVRQAPGKGLELVASISGSGDYTYYPDSVKGRFTISRDNAKNSLYLQMNSLRAEDTAVYYCARSPRGPRLLGYYYGMDVWGQGTTVTVSS
VL: DIVMTQSPLSLPVTPGEPASISCRSSRSLVHGSGHNYLHWYLQKPGQSPQLLIYGASTRVAGVPDRFSGSGSGTDFTLKISRVEAEDVGVYYCMQGTQAPRTFGGGTKVEIK
B2: the binding entry with Mature Activin A (human) [1] and with Latent Activin A (human) [2] was “binds” in each case.

B3: AB843 (antibody, IgG1, V domains shown)
VH: EVQLVQSGAEVKKPGASVKVSCKASGDTSSHSHIHWVRQAPGQGLEWMGWINPRSGATNYAQKLQGRGTMTTDPSTSTAYMELRSLRSDDTAVYYCARDRGGRTNGVGAFDIWGQGTMVTVSS
VL: ESALTQPASVSGSPGQSITISCTGTSGDIGRYNYVSWYQQHPGKAPKLMIYEDIERPSGVSNRFSGSKSGNTASLTISGLQAEDEADYYCQVWDATLDLVFGGGTKLTVL
As for B3, the binding result (with Mature Activin A (human) [1]; in the experiment with Latent Activin A (human) [2]; in experiment [3]; with Mature Activin A (human) [4]; in experiment [5]; with Mature Activin A (human) [6]) was “binds” each time.

B4: AB326 (antibody, IgG1, V domains shown)
VH: QVQLVQSGAEVKKPGASVKVSCKVSGYTFTSSAISWVRQAPGKGLEWMGGIYPGSGHTIYAQKFQGRVTMTEDTSTDTAYMELSSLKSEDTAVYYCAREGDIFVMDVWGLGTAVTVSS
VL: DIQMTQSPSSVSASVGDRVTITCRASMDIRNDLAWYQQKPGKAPKLLIYDASKLETGVPSRFSGSGSGTDFTLTISSLQPEDFANYYCQQAKSFPPTFGGGTKVEIK
For the molecule B4, the binding entry (with Mature Activin A (human) [1]; with Latent Activin A (human) [2]; in experiment [3]) was “binds” in each case.

B5: AB731 (antibody, IgG1, V domains shown)
VH: QVQLQQPGTELVKPGASVKLSCKASGYTFTSYWMHWVKQRPGQGLEWIGNINPSNGGTNYNEKFKSKATLTVDKSSSTAYMQLSSLTSEDSAVYYCSITTVVAYWYFDVWGTGTTVTVSS
VL: ENVLTQSPAIMSASPGEKVTISCSASSSVSYMYWYQQKPGSSPKPWIFRTYNLASGVPARFSGSGSGTSYSLTISNMEAEDAATYYCQQRSSYPWTFGGGTKLEIK
As for B5, the binding entry in the experiment with Latent Activin A (human) [7], with Mature Activin A (human) [4] and in the experiment with Mature Activin A (human) [6] was “binds” throughout.

B6: AB353 (antibody, IgG1, V domains shown)
VH: QVQLQESGPGLVKPSQTLSLTCTVSGLSLSNAKMGVNWIRQPPGKGLEWIGYVSTTGTTDYNPSLKSRVTMSVDTSKNQFSLKVNSVTAADTAVYYCARAGYPDVWGKGTTVTVSS
VL: EIVMTQSPATLSLSPGERATLSCRASQNVYTNLAWYQQKPGQAPRLLIYGASARASGIPARFSGSGSGTDFTLTISSLEPEDFAVYYCLQYGSSPPLFGGGTKVEIK
Turning to B6, the binding result in the experiment with Mature Activin A (human) [1] and in the experiment with Latent Activin A (human) [2] was “binds” each time.

B7: AB350 (antibody, IgG1, V domains shown)
VH: B6 VH with L27V, N31D, K33R, T111L
VL: EIVMTQSPATLSLSPGERATLSCRASESVRSNLAWYQQKPGQAPRLLIYGASNRASGIPARFSGSGSGTDFTLTISSLEPEDFAVYYCQQYHTWPPWAFGGGTKVEIK
For the molecule B7, the binding entry with Mature Activin A (human) [1] and with Latent Activin A (human) [2] was “binds” each time.

B8: AB432 (antibody, IgG1, V domains shown)
VH: B6 VH with L27V, A32V, K33R, S54N, T55P, T56S, T58S, T111L
VL: EIVMTQSPATLSLSPGERATLSCRASQSISSSQLAWYQQKPGQAPRLLIYGASTRATGIPARFSGSGSGTDFTLTISSLEPEDFAVYYCQQYNDRPRTFGGGTKVEIK
B8: the binding result with Mature Activin A (human) [1] and with Latent Activin A (human) [2] was “binds” in each case.

B9: AB352 (antibody, IgG1, V domains shown)
VH: B6 VH with L27F, S28P, N31T, A32S, K33R, V53I, S54N, T55P, T56S, T58A
VL: EIVMTQSPATLSLSPGERATLSCRASQSVSTHLAWYQQKPGQAPRLLIYDATNRATGIPARFSGSGSGTDFTLTISSLEPEDFAVYYCLQYTNYPWTFGGGTKVEIK
Consider B9, for which the binding result with Mature Activin A (human) [1] and with Latent Activin A (human) [2] was “binds” in each case.
